Among the data in PubChem BioAssay AID248 (DTP/NCI, 2004) are survivor count and T/C values, retold here.

SMILES strings stand for the structures. The list shows only some results of the screen, not a fair sample: it is rich in T/C values a quarter to a half above the control, in often repeated tests (any T/C) and in doses without a T/C. Other doses and runs of a compound stand elsewhere. T/C gives the treated animals as a percentage of the vehicle group. Some entries give survivors of the animals treated and no T/C: the source files T/C as zero there, which appears to mark a toxic dose or a test without result, not a measured value. Some survivor counts are full or nearly so, which does not show that the dose was tolerated: survival well below the control is almost never listed, so the zero probably covers shortened survival too. Survivors were counted at the toxicity check, usually on the fifth day, unless a day is given; later deaths do not show. Schedules are NCI's codes, read here as Q, the interval in days (D) or hours (H), X, the number of doses. Some schedule codes hold Z or #, which are not explained here. For survival time, this PubChem deposit counts one and a half times the control or more as active, and values a quarter to a half above the control carry no call in these data; other NCI protocols may use other cut-offs.

The experiment deals with L1210 leukemia ip in BDF1 mice, survival T/C. Put plainly: NCI In Vivo Anticancer Drug Screen. Data for tumor model L1210 Leukemia (intraperitoneal) in B6D2F1 (BDF1) mice. To be noted: T/C endpoint: mean survival time, higher T/C = longer survival.
Where [1] appears, read: dose: 200.0 mg/kg/injection, schedule: Q04DX003 (ip), vehicle: saline with Tween-80.
Where [2] appears, read: dose: 200.0 mg/kg/injection, schedule: Q01DX001 (ip), vehicle: carboxymethylcellulose (CMC).
The mark [3] stands for this setting: dose: 400.0 mg/kg/injection, schedule: Q04DX002 (ip), vehicle: Klucel (hydroxypropylcellulose) (HPC).
Setting [4] is: dose: 100.0 mg/kg/injection, schedule: Q01DX009 (ip), vehicle: saline.
Where [5] appears, read: dose: 300.0 mg/kg/injection, schedule: Q01DX001 (ip), vehicle: saline.
Setting [6] is: dose: 400.0 mg/kg/injection, schedule: Q01DX001 (ip), vehicle: saline with Tween-80.
Where [7] appears, read: dose: 200.0 mg/kg/injection, schedule: Q01DX001 (ip), vehicle: saline.
The mark [8] stands for this setting: dose: 400.0 mg/kg/injection, schedule: Q01DX001 (ip), vehicle: saline.

On to `O=[N+]([O-])c1cc(Cl)cc2c1-c1c(Cl)cc(Cl)cc1C2O` (stereo not given), for which the survivor count (dose: 400.0 mg/kg/injection, schedule: Q01DX009 (ip), vehicle: Klucel (hydroxypropylcellulose) (HPC)) is 2 of 6.

On to `CCN(CC)CCOC(=O)N1c2ccccc2Sc2ccccc21`, for which the survivor count by setting is: (dose: 200.0 mg/kg/injection, schedule: Q01DX009 (ip), vehicle: Klucel (hydroxypropylcellulose) (HPC)) 0 of 6; under setting [1], 3 of 6; (dose: 400.0 mg/kg/injection, schedule: Q04DX003 (ip), vehicle: Klucel (hydroxypropylcellulose) (HPC)) 0 of 6; (dose: 400.0 mg/kg/injection, schedule: Q04DX003 (ip), vehicle: saline with Tween-80) 1 of 6.

Regarding `Cc1n(CC(C)C)c2c([n+]1CC(=O)c1ccc([N+](=O)[O-])cc1)C(=O)c1ccccc1C2=O`, the survivor count (dose: 40.0 mg/kg/injection, schedule: Q01DX001 (ip), vehicle: carboxymethylcellulose (CMC)) is 0 of 4; the survivor count (dose: 50.0 mg/kg/injection, schedule: Q01DX001 (ip), vehicle: carboxymethylcellulose (CMC)) was 0 of 4; the survivor count (dose: 80.0 mg/kg/injection, schedule: Q01DX001 (ip), vehicle: carboxymethylcellulose (CMC)) is listed as 0 of 4; the survivor count (dose: 100.0 mg/kg/injection, schedule: Q01DX001 (ip), vehicle: carboxymethylcellulose (CMC)) is 0 of 4; the survivor count under setting [2] is recorded as 0 of 4; the survivor count (dose: 400.0 mg/kg/injection, schedule: Q01DX001 (ip), vehicle: carboxymethylcellulose (CMC)) is reported as 0 of 4.

Take `Nc1nc(N)nc(CCCCCc2nc(N)nc(N)n2)n1`: the survivor count under setting [2] is listed as 1 of 4.

As to `CCN(CC)Cc1ccccc1COC(=O)c1ccc(OC)cc1`, the survivor count (dose: 400.0 mg/kg/injection, schedule: Q04DX002 (ip), vehicle: saline) is given as 1 of 3.

As to `C/C(=N\O)c1c[nH]c(=O)[nH]c1=O`, under setting [3], the survivor count is reported as 0 of 3.

`[N-]=[N+]=NC(c1ccccc1)S(=O)c1ccccc1` (stereo not given): the survivor count under setting [3] is recorded as 1 of 3.

Consider `OCC1OC(n2cnc3c([Se]Cc4ccccc4)ncnc32)C(O)C1O` (stereo not given), for which the survivor count (dose: 25.0 mg/kg/injection, schedule: Q01DX005 (ip), vehicle: saline) is reported as 0 of 6; the survivor count (dose: 25.0 mg/kg/injection, schedule: Q01DX009 (ip), vehicle: saline) is on record as 0 of 6; the survivor count (dose: 50.0 mg/kg/injection, schedule: Q01DX005 (ip), vehicle: saline) is given as 0 of 6; the survivor count (dose: 50.0 mg/kg/injection, schedule: Q01DX009 (ip), vehicle: saline) was 0 of 6; the survivor count under setting [4] is recorded as 0 of 6.

For the molecule `O=S(=O)(C1=C(c2ccccc2)CCCC1)c1ccccc1`, the survivor count by setting is: (dose: 200.0 mg/kg/injection, schedule: Q01DX009 (ip), vehicle: acetone) 6 of 6; (dose: 400.0 mg/kg/injection, schedule: Q01DX009 (ip), vehicle: acetone) 6 of 6.

`O=C(O)CCC1CCC(=O)NC1=O` (stereo not given): for the setting “dose: 100.0 mg/kg/injection, schedule: Q04DX002 (ip), vehicle: Klucel (hydroxypropylcellulose) (HPC)”, the survivor count was 3 of 3.

Take `N#Cc1ccc[n+](Cc2ccc3c(c2)OCO3)c1`: under setting [5], the survivor count is 0 of 6.

Regarding `COc1cc(C=C(C#N)C#N)cc(OC)c1OC`, the survivor count by setting is: (dose: 200.0 mg/kg/injection, schedule: Q04DX002 (ip), vehicle: gum acacia) 1 of 3; (dose: 400.0 mg/kg/injection, schedule: Q04DX002 (ip), vehicle: gum acacia) 1 of 3.

Consider `CNC(=Nc1ccccc1)c1ccc(NC(=O)c2ccc(C(=O)Nc3ccc(C(=Nc4ccccc4)NC)cc3)cc2)cc1`, for which the survivor count (dose: 120.0 mg/kg/injection, schedule: Q01DX Z (ip), vehicle: saline) is 2 of 6.

With `NC(=O)c1ncc(-c2ccccc2)[nH]c1=O`, the survivor count (dose: 400.0 mg/kg/injection, schedule: Q01DX009 (ip), vehicle: saline) is 3 of 6.

Regarding `O=C1C(=O)c2ccccc2C(O)=C1CN1CCC1`, the survivor count under setting [6] is 0 of 3.

With `CCCCNCC1COc2cccc(OCC)c2O1` (stereo not given), the survivor count reads like this: under setting [4], 1 of 6; under setting [7], 0 of 4; (dose: 200.0 mg/kg/injection, schedule: Q04DX003 (ip), vehicle: saline) 0 of 4; under setting [8], 0 of 4.

On to `Clc1ncnc2c1nnn2C1CCCC1`, for which the survivor count under setting [8] is on record as 2 of 6.

Take `COc1nc(C)c(C)[n+]([O-])n1`: the survivor count was 3 of 6 (dose: 100.0 mg/kg/injection, schedule: Q01DX001 (ip), vehicle: saline with Tween-80); 0 of 6 (dose: 200.0 mg/kg/injection, schedule: Q01DX001 (ip), vehicle: saline with Tween-80); 0 of 6 under setting [6].

As to `CCCCCCCCCC[n+]1ccc(C#N)cc1`, the survivor count (dose: 75.0 mg/kg/injection, schedule: Q01DX001 (ip), vehicle: saline) was 0 of 6; the survivor count (dose: 150.0 mg/kg/injection, schedule: Q01DX001 (ip), vehicle: saline) is 0 of 6; the survivor count under setting [5] is given as 0 of 6.

As to `CN=C1CC2CCC(C2)C1(O)c1ccccc1` (stereo not given), the survivor count was 2 of 6 under setting [7] and 0 of 6 under setting [8].

Take `NC(N)=NNC(=S)S`: the survivor count was 3 of 6 (dose: 100.0 mg/kg/injection, schedule: Q01DX009 (ip), vehicle: saline with Tween-80) and 1 of 6 under setting [1].

`O=C(O)c1ccc(C(=O)O)c(C(=O)O)c1.[NH-]C1CCCCC1[NH-].[Pt+2]`: the T/C (dose: 26.0 mg/kg/injection, schedule: Q01DX001 (ip), vehicle: saline) was 126 % of control and the T/C (dose: 52.0 mg/kg/injection, schedule: Q01DX001 (ip), vehicle: saline) was 126 % of control. Besides, the survivor count is, setting by setting: (dose: 60.0 mg/kg/injection, schedule: Q01DX001 (ip), vehicle: sodium bicarbonate) 1 of 6; (dose: 80.0 mg/kg/injection, schedule: Q01DX001 (ip), vehicle: sodium bicarbonate) 2 of 6.

Regarding `CC(=O)N(N=O)c1ccc(C)cc1`, under “dose: 80.0 mg/kg/injection, schedule: Q01DX001 (ip), vehicle: saline”, the survivor count is listed as 0 of 4.

Take `O=S1(=O)CCCO1`: the survivor count (dose: 400.0 mg/kg/injection, schedule: Q01DX009 (ip), vehicle: other) is reported as 0 of 6.
